Some of the results follow.
compound: CC1Cc2ccccc2N1C(=O)C1CCCN(C1)C(=O)CCl (mixture of isomers) [TRIM25 ligand 11 (diastereomer mixture)]; test: probe-labelled cysteine peptide fold change vs DMSO (competition) (log2 fold change); higher = less target engagement (more negative = stronger competition); conditions: 10 µM; THP-1; incubation time: 4 h
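Also: competitive chemoproteomic profiling in live THP-1 cells with an iodoacetamide desthiobiotin (IA-DTB) probe, comparing probe-labelled peptide intensities in compound-treated cells against DMSO-treated controls.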

Sequences of proteins named here, by UniProt entry; tags and fusion partners are left off. A change or cut given only in a name is not applied to a line headed by its entry.
UniProt Q96RP9: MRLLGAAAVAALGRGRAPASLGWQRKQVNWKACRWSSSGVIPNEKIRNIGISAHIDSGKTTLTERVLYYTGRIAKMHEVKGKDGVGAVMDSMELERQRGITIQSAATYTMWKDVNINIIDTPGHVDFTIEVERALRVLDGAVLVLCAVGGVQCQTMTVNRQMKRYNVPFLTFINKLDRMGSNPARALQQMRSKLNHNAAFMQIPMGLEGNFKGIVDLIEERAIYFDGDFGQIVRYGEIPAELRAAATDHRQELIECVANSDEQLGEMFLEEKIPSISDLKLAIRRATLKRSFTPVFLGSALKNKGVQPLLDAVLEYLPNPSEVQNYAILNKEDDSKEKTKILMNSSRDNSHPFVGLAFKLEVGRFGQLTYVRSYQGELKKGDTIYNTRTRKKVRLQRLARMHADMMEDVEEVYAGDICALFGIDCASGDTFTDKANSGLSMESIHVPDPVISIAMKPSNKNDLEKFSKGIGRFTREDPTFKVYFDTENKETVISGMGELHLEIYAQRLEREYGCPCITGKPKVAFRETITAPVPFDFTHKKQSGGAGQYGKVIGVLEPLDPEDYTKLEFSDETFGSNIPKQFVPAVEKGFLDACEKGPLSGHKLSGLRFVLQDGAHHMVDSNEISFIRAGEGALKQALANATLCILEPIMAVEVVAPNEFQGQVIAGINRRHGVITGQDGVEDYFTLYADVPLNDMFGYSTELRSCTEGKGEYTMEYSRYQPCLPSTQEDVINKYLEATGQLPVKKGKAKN
UniProt Q9Y2X7: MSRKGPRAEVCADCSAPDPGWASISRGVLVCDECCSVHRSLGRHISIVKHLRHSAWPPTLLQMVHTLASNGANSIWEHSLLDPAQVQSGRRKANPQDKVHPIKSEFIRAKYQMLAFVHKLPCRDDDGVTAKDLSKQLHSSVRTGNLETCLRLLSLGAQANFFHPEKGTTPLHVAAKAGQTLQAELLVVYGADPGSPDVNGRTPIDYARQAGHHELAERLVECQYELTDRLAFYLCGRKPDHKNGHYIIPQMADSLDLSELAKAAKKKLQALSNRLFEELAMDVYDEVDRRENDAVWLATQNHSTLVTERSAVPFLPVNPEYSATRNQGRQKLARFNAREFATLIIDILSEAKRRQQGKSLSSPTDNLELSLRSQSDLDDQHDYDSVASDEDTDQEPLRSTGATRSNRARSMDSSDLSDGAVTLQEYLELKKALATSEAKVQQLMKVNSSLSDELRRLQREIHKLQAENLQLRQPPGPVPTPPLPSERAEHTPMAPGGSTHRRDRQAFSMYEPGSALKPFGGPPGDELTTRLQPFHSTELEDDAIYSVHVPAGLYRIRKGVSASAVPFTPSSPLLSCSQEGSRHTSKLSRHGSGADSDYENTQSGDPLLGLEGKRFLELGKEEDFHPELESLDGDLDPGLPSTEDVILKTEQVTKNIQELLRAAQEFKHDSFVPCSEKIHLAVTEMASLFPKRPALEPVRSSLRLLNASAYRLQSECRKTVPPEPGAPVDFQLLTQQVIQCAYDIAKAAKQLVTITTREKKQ
UniProt P50395: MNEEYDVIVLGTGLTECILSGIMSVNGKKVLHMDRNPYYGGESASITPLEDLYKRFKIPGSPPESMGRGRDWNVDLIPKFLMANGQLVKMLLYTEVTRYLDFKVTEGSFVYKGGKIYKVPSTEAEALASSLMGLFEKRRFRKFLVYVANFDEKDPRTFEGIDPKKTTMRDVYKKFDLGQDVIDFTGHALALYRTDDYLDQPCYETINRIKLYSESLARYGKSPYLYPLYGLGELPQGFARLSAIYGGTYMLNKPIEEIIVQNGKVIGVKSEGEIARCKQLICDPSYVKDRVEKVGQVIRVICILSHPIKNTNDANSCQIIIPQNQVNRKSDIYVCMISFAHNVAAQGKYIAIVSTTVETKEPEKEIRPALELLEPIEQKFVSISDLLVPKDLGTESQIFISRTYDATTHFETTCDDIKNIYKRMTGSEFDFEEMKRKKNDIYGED
UniProt O14556: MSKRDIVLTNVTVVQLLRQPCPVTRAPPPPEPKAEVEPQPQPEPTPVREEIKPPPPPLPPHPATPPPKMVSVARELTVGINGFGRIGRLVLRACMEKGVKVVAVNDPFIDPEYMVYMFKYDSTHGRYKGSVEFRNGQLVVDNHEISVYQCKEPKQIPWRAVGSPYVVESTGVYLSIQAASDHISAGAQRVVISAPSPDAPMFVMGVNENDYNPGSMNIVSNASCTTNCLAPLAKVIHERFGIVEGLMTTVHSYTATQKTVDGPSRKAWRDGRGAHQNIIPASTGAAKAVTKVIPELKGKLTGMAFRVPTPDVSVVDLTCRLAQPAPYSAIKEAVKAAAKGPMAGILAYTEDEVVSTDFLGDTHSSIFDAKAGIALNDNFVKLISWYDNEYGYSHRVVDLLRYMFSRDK
UniProt P48507: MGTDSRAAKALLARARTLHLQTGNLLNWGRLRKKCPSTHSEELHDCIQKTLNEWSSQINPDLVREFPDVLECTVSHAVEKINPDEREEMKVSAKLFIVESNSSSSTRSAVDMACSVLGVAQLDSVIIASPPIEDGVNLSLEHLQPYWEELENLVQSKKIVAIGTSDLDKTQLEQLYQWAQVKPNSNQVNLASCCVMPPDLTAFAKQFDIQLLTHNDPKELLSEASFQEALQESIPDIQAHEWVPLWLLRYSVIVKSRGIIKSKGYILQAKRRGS
UniProt Q9BRT9, whole entry, looked up: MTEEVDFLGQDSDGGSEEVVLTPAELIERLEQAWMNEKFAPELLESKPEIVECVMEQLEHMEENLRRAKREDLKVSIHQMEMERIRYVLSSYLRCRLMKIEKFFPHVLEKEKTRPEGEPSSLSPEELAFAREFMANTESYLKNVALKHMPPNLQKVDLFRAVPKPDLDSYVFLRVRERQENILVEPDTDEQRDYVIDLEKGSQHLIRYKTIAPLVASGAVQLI
UniProt Q9H3C7, whole entry, looked up: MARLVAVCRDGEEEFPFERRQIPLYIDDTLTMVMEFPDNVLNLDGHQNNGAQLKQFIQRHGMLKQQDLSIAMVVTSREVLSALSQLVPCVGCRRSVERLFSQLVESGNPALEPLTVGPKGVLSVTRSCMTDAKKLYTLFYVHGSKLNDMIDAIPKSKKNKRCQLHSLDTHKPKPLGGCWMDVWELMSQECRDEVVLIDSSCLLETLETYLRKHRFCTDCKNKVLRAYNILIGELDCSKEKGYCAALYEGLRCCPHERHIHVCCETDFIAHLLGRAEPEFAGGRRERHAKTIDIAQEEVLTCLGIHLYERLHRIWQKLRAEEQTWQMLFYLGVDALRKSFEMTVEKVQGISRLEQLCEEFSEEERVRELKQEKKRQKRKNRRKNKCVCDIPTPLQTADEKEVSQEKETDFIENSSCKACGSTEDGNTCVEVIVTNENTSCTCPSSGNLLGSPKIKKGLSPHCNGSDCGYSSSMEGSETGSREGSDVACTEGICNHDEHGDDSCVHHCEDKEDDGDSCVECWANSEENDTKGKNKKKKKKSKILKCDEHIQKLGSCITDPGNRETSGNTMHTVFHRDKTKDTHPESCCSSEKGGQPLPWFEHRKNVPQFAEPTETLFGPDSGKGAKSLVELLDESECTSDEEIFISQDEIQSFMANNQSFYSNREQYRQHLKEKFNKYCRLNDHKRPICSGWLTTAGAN
UniProt Q8IXK2: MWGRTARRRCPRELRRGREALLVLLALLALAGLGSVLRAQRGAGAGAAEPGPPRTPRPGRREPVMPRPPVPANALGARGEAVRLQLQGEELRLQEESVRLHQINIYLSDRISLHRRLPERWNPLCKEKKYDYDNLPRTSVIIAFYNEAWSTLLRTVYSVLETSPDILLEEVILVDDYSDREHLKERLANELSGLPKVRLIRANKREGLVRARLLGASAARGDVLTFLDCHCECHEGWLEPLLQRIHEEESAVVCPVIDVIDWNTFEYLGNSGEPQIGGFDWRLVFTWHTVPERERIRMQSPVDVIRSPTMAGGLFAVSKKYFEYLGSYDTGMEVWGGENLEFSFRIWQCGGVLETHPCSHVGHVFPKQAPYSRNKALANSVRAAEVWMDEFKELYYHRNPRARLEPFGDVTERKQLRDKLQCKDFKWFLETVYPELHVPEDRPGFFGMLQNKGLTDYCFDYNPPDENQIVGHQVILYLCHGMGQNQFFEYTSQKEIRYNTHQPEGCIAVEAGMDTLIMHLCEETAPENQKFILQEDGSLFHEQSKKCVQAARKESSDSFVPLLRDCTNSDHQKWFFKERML
UniProt Q969S9: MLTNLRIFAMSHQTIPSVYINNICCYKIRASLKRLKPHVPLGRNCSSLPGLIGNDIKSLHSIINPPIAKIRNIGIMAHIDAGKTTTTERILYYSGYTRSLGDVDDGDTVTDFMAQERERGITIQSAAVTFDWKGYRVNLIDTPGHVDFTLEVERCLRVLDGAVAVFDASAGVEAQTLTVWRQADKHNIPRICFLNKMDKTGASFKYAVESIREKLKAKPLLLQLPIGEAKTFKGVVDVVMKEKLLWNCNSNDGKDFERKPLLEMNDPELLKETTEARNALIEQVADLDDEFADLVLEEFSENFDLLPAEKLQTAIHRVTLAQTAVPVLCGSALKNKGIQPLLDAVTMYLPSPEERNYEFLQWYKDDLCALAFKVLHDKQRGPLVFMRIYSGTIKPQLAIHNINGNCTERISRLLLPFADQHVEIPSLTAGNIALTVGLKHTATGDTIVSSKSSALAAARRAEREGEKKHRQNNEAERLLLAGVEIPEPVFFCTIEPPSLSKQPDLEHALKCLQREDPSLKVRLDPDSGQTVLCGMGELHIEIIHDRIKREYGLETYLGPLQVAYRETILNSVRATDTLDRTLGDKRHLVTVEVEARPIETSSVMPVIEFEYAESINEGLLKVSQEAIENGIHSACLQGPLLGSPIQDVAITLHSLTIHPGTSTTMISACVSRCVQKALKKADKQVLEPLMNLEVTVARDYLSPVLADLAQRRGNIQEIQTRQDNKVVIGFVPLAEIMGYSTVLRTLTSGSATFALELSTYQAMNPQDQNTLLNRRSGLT
UniProt O95749: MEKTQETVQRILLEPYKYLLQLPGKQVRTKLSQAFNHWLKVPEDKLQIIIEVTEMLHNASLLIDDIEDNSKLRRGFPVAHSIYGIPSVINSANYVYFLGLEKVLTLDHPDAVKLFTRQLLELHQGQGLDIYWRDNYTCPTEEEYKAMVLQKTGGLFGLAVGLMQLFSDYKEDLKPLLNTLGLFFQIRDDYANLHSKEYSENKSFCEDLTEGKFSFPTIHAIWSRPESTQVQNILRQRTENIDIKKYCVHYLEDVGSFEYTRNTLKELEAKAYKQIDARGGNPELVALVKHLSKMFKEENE
UniProt Q14697: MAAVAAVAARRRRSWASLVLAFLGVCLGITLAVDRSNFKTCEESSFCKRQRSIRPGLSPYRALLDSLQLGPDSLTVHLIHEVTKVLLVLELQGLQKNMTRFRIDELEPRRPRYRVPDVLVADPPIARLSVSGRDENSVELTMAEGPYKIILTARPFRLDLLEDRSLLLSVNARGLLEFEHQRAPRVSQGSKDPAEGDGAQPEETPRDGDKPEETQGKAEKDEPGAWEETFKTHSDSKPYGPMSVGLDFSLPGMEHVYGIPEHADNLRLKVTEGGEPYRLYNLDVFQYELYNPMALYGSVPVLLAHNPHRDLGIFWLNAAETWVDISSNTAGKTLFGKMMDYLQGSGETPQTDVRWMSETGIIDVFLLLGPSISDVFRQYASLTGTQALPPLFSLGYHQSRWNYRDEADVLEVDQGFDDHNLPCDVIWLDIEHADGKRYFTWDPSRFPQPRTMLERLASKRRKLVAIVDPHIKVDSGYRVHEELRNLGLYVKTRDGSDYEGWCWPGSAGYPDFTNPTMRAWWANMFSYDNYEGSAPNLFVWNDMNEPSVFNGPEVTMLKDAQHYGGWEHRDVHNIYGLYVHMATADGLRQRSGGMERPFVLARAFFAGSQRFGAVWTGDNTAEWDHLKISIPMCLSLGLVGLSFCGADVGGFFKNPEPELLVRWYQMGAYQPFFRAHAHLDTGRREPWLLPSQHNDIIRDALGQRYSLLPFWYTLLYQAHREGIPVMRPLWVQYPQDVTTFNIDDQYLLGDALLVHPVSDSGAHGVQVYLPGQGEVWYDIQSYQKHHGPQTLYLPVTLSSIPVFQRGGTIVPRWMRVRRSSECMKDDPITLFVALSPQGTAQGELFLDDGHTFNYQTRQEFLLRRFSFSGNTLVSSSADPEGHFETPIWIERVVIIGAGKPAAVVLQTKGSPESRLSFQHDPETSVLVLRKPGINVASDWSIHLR
UniProt P07902: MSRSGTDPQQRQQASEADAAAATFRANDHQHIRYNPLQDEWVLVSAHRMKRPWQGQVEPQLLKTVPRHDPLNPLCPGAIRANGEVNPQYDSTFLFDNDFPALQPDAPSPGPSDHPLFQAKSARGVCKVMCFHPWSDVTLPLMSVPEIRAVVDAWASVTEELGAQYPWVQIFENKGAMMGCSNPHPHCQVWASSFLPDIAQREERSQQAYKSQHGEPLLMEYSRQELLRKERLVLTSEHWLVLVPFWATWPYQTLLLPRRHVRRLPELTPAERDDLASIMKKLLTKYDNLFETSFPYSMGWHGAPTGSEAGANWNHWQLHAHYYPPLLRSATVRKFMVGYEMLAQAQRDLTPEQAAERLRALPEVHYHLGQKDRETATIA

Target	probe-labelled cysteine peptide fold change
GFM1_Q96RP9_256_QELIECVANSDEQLGEMFLEEK (UniProt Q96RP9)	-0.056
GCN1_Q92616_1235_CGLALALNK (UniProt Q92616)	-0.0728
GFI1_Q99684_398_HTGFKPFGCDLCGK (UniProt Q99684)	0.0767
GIT1_Q9Y2X7_222_LVECQYELTDR (UniProt Q9Y2X7)	0.172
GAPDH_P04406_152_IISNASCTTNCLAPLAK (UniProt P04406)	-0.00264
GCC2_Q8IWJ2_817+826_CLQEESVVQCEELK (UniProt Q8IWJ2)	-0.115
GDI2_P50395_335_KSDIYVCMISFAHNVAAQGK (UniProt P50395)	0.0667
GFPT1_Q06210_264_VDSTTCLFPVEEK (UniProt Q06210)	0.0965
GATD1_Q8NB37_132_ILQHFHSESKPICAVGHGVAALCCATNEDR (UniProt Q8NB37)	0.062
GAPDHS_O14556_319_VPTPDVSVVDLTCR (UniProt O14556)	-0.335
GATAD2A_Q86YP4_6_TEEACR (UniProt Q86YP4)	0.138
GCLM_P48507_35+46_CPSTHSEELHDCIQK (UniProt P48507)	0.0628
GAK_O14976_87_AIIQEVCFMK (UniProt O14976)	-0.0317
GAK_O14976_691_YDLDACDIQEK (UniProt O14976)	0.0279
GINS4_Q9BRT9_53_FAPELLESKPEIVECVMEQLEHMEENLR (UniProt Q9BRT9)	-0.0556
GAS7_O60861_318_CDHHIADLR (UniProt O60861)	0.115
GCC2_Q8IWJ2_889_TRLENQNLLIQVEEVSQTCSK (UniProt Q8IWJ2)	0.0253
GID8_Q9NWU2_139_QRETEAALEFAQTQLAEQGEESRECLTEMER (UniProt Q9NWU2)	0.0989
GALNT7_Q86SF2_197_SVNDLRQEECK (UniProt Q86SF2)	0.131
GGNBP2_Q9H3C7_92_EVLSALSQLVPCVGCR (UniProt Q9H3C7)	0.146

Target	probe-labelled cysteine peptide fold change
GALM_Q96C23_305_HSGFCLETQNWPDAVNQPR (UniProt Q96C23)	-0.111
GAPVD1_Q14C86_789_IEDLRSECSSDFGGK (UniProt Q14C86)	-0.0753
GALNT12_Q8IXK2_233_GDVLTFLDCHCECHEGWLEPLLQR (UniProt Q8IXK2)	-0.107
GAPVD1_Q14C86_789_SECSSDFGGK (UniProt Q14C86)	0.0422
GIT1_Q9Y2X7_122_LPCRDDDGVTAK (UniProt Q9Y2X7)	-0.0269
GDI2_P50395_414_TYDATTHFETTCDDIK (UniProt P50395)	0.0458
GBE1_Q04446_221_HFTCNVLPR (UniProt Q04446)	0.0806
GCN1_Q92616_147_LVEVQCLLLLEVLGGSHK (UniProt Q92616)	-0.0683
GFM2_Q969S9_248_LLWNCNSNDGK (UniProt Q969S9)	0.0226
GGPS1_O95749_205_SFCEDLTEGK (UniProt O95749)	0.00907
GID8_Q9NWU2_139_ECLTEMER (UniProt Q9NWU2)	0.00151
GGPS1_O95749_138_DNYTCPTEEEYK (UniProt O95749)	0.147
GFM1_Q96RP9_256_AAATDHRQELIECVANSDEQLGEMFLEEK (UniProt Q96RP9)	0.0399
GANAB_Q14697_41_TCEESSFCK (UniProt Q14697)	0.0619
GIMAP5_Q96F15_238_TGAGACQEDYR (UniProt Q96F15)	-0.0398
GAPVD1_Q14C86_741_LQELESCSGLGSTSDDTDVR (UniProt Q14C86)	0.176
GCN1_Q92616_1527_AGSVELLGAMAYCAPK (UniProt Q92616)	0.0862
GCC2_Q8IWJ2_1306_VTALQEECR (UniProt Q8IWJ2)	0.0917
GALT_P07902_180+187_GAMMGCSNPHPHCQVWASSFLPDIAQR (UniProt P07902)	0.12

same assay, conditions: 50 µM; THP-1; incubation time: 4 h

Target	probe-labelled cysteine peptide fold change
GFM1_Q96RP9_256_QELIECVANSDEQLGEMFLEEK (UniProt Q96RP9)	-0.154
GCN1_Q92616_1235_CGLALALNK (UniProt Q92616)	-0.138
GFI1_Q99684_398_HTGFKPFGCDLCGK (UniProt Q99684)	0.0682
GIT1_Q9Y2X7_222_LVECQYELTDR (UniProt Q9Y2X7)	0.175
GAPDH_P04406_152_IISNASCTTNCLAPLAK (UniProt P04406)	0.0221
GCC2_Q8IWJ2_817+826_CLQEESVVQCEELK (UniProt Q8IWJ2)	-0.234
GDI2_P50395_335_KSDIYVCMISFAHNVAAQGK (UniProt P50395)	0.113
GFPT1_Q06210_264_VDSTTCLFPVEEK (UniProt Q06210)	0.088
GATD1_Q8NB37_132_ILQHFHSESKPICAVGHGVAALCCATNEDR (UniProt Q8NB37)	0.149
GAPDHS_O14556_319_VPTPDVSVVDLTCR (UniProt O14556)	-0.153
GATAD2A_Q86YP4_6_TEEACR (UniProt Q86YP4)	0.115
GCLM_P48507_35+46_CPSTHSEELHDCIQK (UniProt P48507)	-0.235
GAK_O14976_87_AIIQEVCFMK (UniProt O14976)	-0.101
GAK_O14976_691_YDLDACDIQEK (UniProt O14976)	-0.0486
GINS4_Q9BRT9_53_FAPELLESKPEIVECVMEQLEHMEENLR (UniProt Q9BRT9)	0.0263
GAS7_O60861_318_CDHHIADLR (UniProt O60861)	0.151
GCC2_Q8IWJ2_889_TRLENQNLLIQVEEVSQTCSK (UniProt Q8IWJ2)	-0.161
GID8_Q9NWU2_139_QRETEAALEFAQTQLAEQGEESRECLTEMER (UniProt Q9NWU2)	-0.0412
GALNT7_Q86SF2_197_SVNDLRQEECK (UniProt Q86SF2)	0.00904
GGNBP2_Q9H3C7_92_EVLSALSQLVPCVGCR (UniProt Q9H3C7)	0.0528

Target	probe-labelled cysteine peptide fold change
GALM_Q96C23_305_HSGFCLETQNWPDAVNQPR (UniProt Q96C23)	0.186
GAPVD1_Q14C86_789_IEDLRSECSSDFGGK (UniProt Q14C86)	-0.101
GALNT12_Q8IXK2_233_GDVLTFLDCHCECHEGWLEPLLQR (UniProt Q8IXK2)	-0.0103
GAPVD1_Q14C86_789_SECSSDFGGK (UniProt Q14C86)	-0.102
GIT1_Q9Y2X7_122_LPCRDDDGVTAK (UniProt Q9Y2X7)	-0.0357
GDI2_P50395_414_TYDATTHFETTCDDIK (UniProt P50395)	-0.0269
GBE1_Q04446_221_HFTCNVLPR (UniProt Q04446)	0.0818
GCN1_Q92616_147_LVEVQCLLLLEVLGGSHK (UniProt Q92616)	0.15
GFM2_Q969S9_248_LLWNCNSNDGK (UniProt Q969S9)	-0.218
GGPS1_O95749_205_SFCEDLTEGK (UniProt O95749)	-0.12
GID8_Q9NWU2_139_ECLTEMER (UniProt Q9NWU2)	-0.0683
GGPS1_O95749_138_DNYTCPTEEEYK (UniProt O95749)	0.142
GFM1_Q96RP9_256_AAATDHRQELIECVANSDEQLGEMFLEEK (UniProt Q96RP9)	-0.234
GANAB_Q14697_41_TCEESSFCK (UniProt Q14697)	0.142
GIMAP5_Q96F15_238_TGAGACQEDYR (UniProt Q96F15)	-0.105
GAPVD1_Q14C86_741_LQELESCSGLGSTSDDTDVR (UniProt Q14C86)	-0.159
GCN1_Q92616_1527_AGSVELLGAMAYCAPK (UniProt Q92616)	0.15
GCC2_Q8IWJ2_1306_VTALQEECR (UniProt Q8IWJ2)	0.0121
GALT_P07902_180+187_GAMMGCSNPHPHCQVWASSFLPDIAQR (UniProt P07902)	0.119
